For test [1], the target named is T1, Human EREG (Biacore analyte) (human) (UniProt O14944).
T1 sequence: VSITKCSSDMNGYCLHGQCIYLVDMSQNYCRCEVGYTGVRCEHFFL
The test is described as follows: SPR (Biacore T100, single-cycle kinetics), antibody captured on Protein A, human EREG as analyte; bar = KD of the antibody / KD of chimeric EP27 (cH-G1/cL-k). For orientation: Surface plasmon resonance follows binding to a sensor surface in real time, without labels.

Test [2] deals with T2, cynomolgus EREG (Biacore analyte) (cynomolgus monkey).
T2 sequence: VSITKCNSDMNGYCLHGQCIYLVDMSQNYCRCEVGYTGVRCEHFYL
Kind of test: SPR (Biacore).

The target of test [3] is T1, Human EREG (Biacore analyte) (human). Kind of test: SPR (Biacore).
The target of test [4] is T2, cynomolgus EREG (Biacore analyte) (cynomolgus monkey). The test is described as follows: SPR (Biacore T100, single-cycle kinetics), antibody captured on Protein A, cynomolgus or human EREG as analyte; bar = KD for monkey Epiregulin / KD for human Epiregulin.
Test [5] deals with T1, Human EREG (Biacore analyte) (human). Kind of test: SPR (Biacore T100, single-cycle kinetics), antibody captured on Protein A, human EREG as analyte; bar = KD of the antibody / KD of chimeric EP27.

No constants are given. Whether binding was seen depends on the method and setting. Some results given as binding are weak or reduced against the parent protein; the word gives no strength.

B1: H124-G1d/LB-k (antibody, human IgG1, kappa, V domains shown)
VH: QDQLVQSGAEVKKPGASVKVSCKASGFNIKDTRIQWVRQAPGQGLEWMGRIDPLRGNTKYREKFEGRVTITADTSTNTAYMELSSLRSEDTAVYYCVRSGTLFDFWGQGTLVTVSS
VL: DIQMTQSPSSLSASVGDRVTITCKASQDIHKYIAWYQQKPGQAPRLLIQYTSTLQPGVPSRFSGSGSGTDYTFTISSLQPEDIATYYCLQYDNLRTFGGGTKVEIKR
Regarding B1, the binding entry in test [1] is “binds”.

B2: H213-G1d/L48-k (antibody, human IgG1, kappa, V domains shown)
VH: QDQLVQSGAEVKKPGASVKVSCKASGFNIKDTYIQWVRQAPGQGLEWMGRIDPLRHQTKYREKFEGRVTITADTSTNTAYMELSSLRSEDTAVYYCVRSGREFDFWGQGTLVTVSS
VL: DIQMTQSPSSLSASVGDRVTITCKASQDIHKYIAWYQQKPGQAPRLLIQYTSTLQPGVPSRFSGSGSGTDYTFTISSLQPEDIATYYCLQYDNRRTFGGGTKVEIKR
Consider B2, for which the binding result in test [2], in test [3], in test [4] and in test [5] was “binds” each time.

B3: H131-G1d/LB-k (antibody, human IgG1, kappa, V domains shown)
VH: QDQLVQSGAEVKKPGASVKVSCKASGFNIKDTYIQWVRQAPGQGLEWMGRIDPLRRNTKYREKFEGRVTITADTSTNTAYMELSSLRSEDTAVYYCVRSRTLFDFWGQGTLVTVSS
VL: DIQMTQSPSSLSASVGDRVTITCKASQDIHKYIAWYQQKPGQAPRLLIQYTSTLQPGVPSRFSGSGSGTDYTFTISSLQPEDIATYYCLQYDNLRTFGGGTKVEIKR
As for B3, the binding entry in test [1] was “binds”.

B4: H207-G1d/L48-k (antibody, human IgG1, kappa, V domains shown)
VH: QDQLVQSGAEVKKPGASVKVSCKASGFNIKDTYIQWVRQAPGQGLEWMGRIDPLRRQTKYREKFEGRVTITADESTNTAYMELSSLRSEDTAVYYCVRSGREFDFWGQGTLVTVSS
VL: DIQMTQSPSSLSASVGDRVTITCKASQDIHKYIAWYQQKPGQAPRLLIQYTSTLQPGVPSRFSGSGSGTDYTFTISSLQPEDIATYYCLQYDNRRTFGGGTKVEIKR
For the molecule B4, the binding result in test [2], in test [3], in test [4] and in test [5] was “binds” in each case.

B5: H213-G1d/LB-k (antibody, human IgG1, kappa, V domains shown)
VH: QDQLVQSGAEVKKPGASVKVSCKASGFNIKDTYIQWVRQAPGQGLEWMGRIDPLRHQTKYREKFEGRVTITADTSTNTAYMELSSLRSEDTAVYYCVRSGREFDFWGQGTLVTVSS
VL: DIQMTQSPSSLSASVGDRVTITCKASQDIHKYIAWYQQKPGQAPRLLIQYTSTLQPGVPSRFSGSGSGTDYTFTISSLQPEDIATYYCLQYDNLRTFGGGTKVEIKR
In the case of B5, the binding entry in test [2], in test [3], in test [4] and in test [5] was “binds” in each case.

B6: H119-G1d/LB-k (antibody, human IgG1, kappa, V domains shown)
VH: QDQLVQSGAEVKKPGASVKVSCKASGFNIKDTYIQWVRQAPGQGLEWMGRIDPLRGNTRYREKFEGRVTITADTSTNTAYMELSSLRSEDTAVYYCVRSGTLFDFWGQGTLVTVSS
VL: DIQMTQSPSSLSASVGDRVTITCKASQDIHKYIAWYQQKPGQAPRLLIQYTSTLQPGVPSRFSGSGSGTDYTFTISSLQPEDIATYYCLQYDNLRTFGGGTKVEIKR
On to B6, for which the binding result in test [1] was “binds”.

B7: H111-G1d/L47-k (antibody, human IgG1, kappa, V domains shown)
VH: QDQLVQSGAEVKKPGASVKVSCKASGFNIKDTYIQWVRQAPGQGLEWMGRIDPLRGNTKYREKFEGRVTITADTSTNTAYMELSSLRSEDTAVYYCVRSGTLFDFWGQGTLVTVSS
VL: DIQMTQSPSSLSASVGDRVTITCKASQDIHKYIAWYQQKPGQAPRLLIQYTSTLQPGVPSRFSGSGSGTDYTFTISSLQPEDIATYYCLQYDRLRTFGGGTKVEIKR
On to B7, for which the binding result in test [1] is given as “binds”.

B8: H210-G1d/LB-k (antibody, human IgG1, kappa, V domains shown)
VH: QDQLVQSGAEVKKPGASVKVSCKASGFNIKDTYIQWVRQAPGQGLEWMGRIDPLRRQTKYKEKFEGRVTITADTSTNTAYMELSSLRSEDTAVYYCVRSGREFDFWGQGTLVTVSS
VL: DIQMTQSPSSLSASVGDRVTITCKASQDIHKYIAWYQQKPGQAPRLLIQYTSTLQPGVPSRFSGSGSGTDYTFTISSLQPEDIATYYCLQYDNLRTFGGGTKVEIKR
As to B8, the binding result in test [2], in test [3], in test [4] and in test [5] was “binds” each time.

B9: H212-G1d/LB-k (antibody, human IgG1, kappa, V domains shown)
VH: QDQLVQSGAEVKKPGASVKVSCKASGFNIKDTYIQWVRQAPGQGLEWMGRIDPLRKQTKYREKFEGRVTITADTSTNTAYMELSSLRSEDTAVYYCVRSGREFDFWGQGTLVTVSS
VL: DIQMTQSPSSLSASVGDRVTITCKASQDIHKYIAWYQQKPGQAPRLLIQYTSTLQPGVPSRFSGSGSGTDYTFTISSLQPEDIATYYCLQYDNLRTFGGGTKVEIKR
Take B9: the binding entry in test [2], in test [3], in test [4] and in test [5] was “binds” throughout.

B10: H212-G1d/L48-k (antibody, human IgG1, kappa, V domains shown)
VH: QDQLVQSGAEVKKPGASVKVSCKASGFNIKDTYIQWVRQAPGQGLEWMGRIDPLRKQTKYREKFEGRVTITADTSTNTAYMELSSLRSEDTAVYYCVRSGREFDFWGQGTLVTVSS
VL: DIQMTQSPSSLSASVGDRVTITCKASQDIHKYIAWYQQKPGQAPRLLIQYTSTLQPGVPSRFSGSGSGTDYTFTISSLQPEDIATYYCLQYDNRRTFGGGTKVEIKR
Take B10: the binding entry in test [2], in test [3], in test [4] and in test [5] was “binds” each time.

B11: H207-G1d/LB-k (antibody, human IgG1, kappa, V domains shown)
VH: QDQLVQSGAEVKKPGASVKVSCKASGFNIKDTYIQWVRQAPGQGLEWMGRIDPLRRQTKYREKFEGRVTITADESTNTAYMELSSLRSEDTAVYYCVRSGREFDFWGQGTLVTVSS
VL: DIQMTQSPSSLSASVGDRVTITCKASQDIHKYIAWYQQKPGQAPRLLIQYTSTLQPGVPSRFSGSGSGTDYTFTISSLQPEDIATYYCLQYDNLRTFGGGTKVEIKR
On to B11, for which the binding result in test [2], in test [3], in test [4] and in test [5] was “binds” each time.

B12: H112-G1d/LB-k (antibody, human IgG1, kappa, V domains shown)
VH: QDQLVQSGAEVKKPGASVKVSCKASGFNIKDTYIQWVRQAPGQGLEWMGRRDPLRGNTKYREKFEGRVTITADTSTNTAYMELSSLRSEDTAVYYCVRSGTLFDFWGQGTLVTVSS
VL: DIQMTQSPSSLSASVGDRVTITCKASQDIHKYIAWYQQKPGQAPRLLIQYTSTLQPGVPSRFSGSGSGTDYTFTISSLQPEDIATYYCLQYDNLRTFGGGTKVEIKR
On to B12, for which the binding result in test [1] is “binds”.

B13: H224-G1d/L53-k (antibody, human IgG1, kappa, V domains shown)
VH: QDQLVQSGAEVKNPGASVKVSCKASGFNIKDTYIQWVRQAPGQGLEWMGRIDPLRRQTKYREKFEGRVTITADTSTNTAYMELSSLRAEDTAVYYCVRSGREFDYWGQGTLVTVSS
VL: DIQMTQSPSSLSASVGDRVTITCRASQDIHKYIAWYQQKPGQAPRLLIQYTSTLQPGVPSRFSGSGSGTDYTFTISSLQPEDIATYYCLQYDNLRTFGGGTKVEIKR
Consider B13, for which the binding result in test [2], in test [3], in test [4] and in test [5] was “binds” throughout.

B14: H133-G1d/LB-k (antibody, human IgG1, kappa, V domains shown)
VH: QDQLVQSGAEVKKPGASVKVSCKASGFNIKDTYIQWVRQAPGQGLEWMGRIDPLRRNTKYREKFEGRVTITADTSTNTAYMELSSLRSEDTAVYYCVRSGTRFDFWGQGTLVTVSS
VL: DIQMTQSPSSLSASVGDRVTITCKASQDIHKYIAWYQQKPGQAPRLLIQYTSTLQPGVPSRFSGSGSGTDYTFTISSLQPEDIATYYCLQYDNLRTFGGGTKVEIKR
B14: the binding result in test [1] was “binds”.

B15: H211-G1d/L48-k (antibody, human IgG1, kappa, V domains shown)
VH: QDQLVQSGAEVKKPGASVKVSCKASGFNIKDTYIQWVRQAPGQGLEWMGRIDPLRRQTKYHEKFEGRVTITADTSTNTAYMELSSLRSEDTAVYYCVRSGREFDFWGQGTLVTVSS
VL: DIQMTQSPSSLSASVGDRVTITCKASQDIHKYIAWYQQKPGQAPRLLIQYTSTLQPGVPSRFSGSGSGTDYTFTISSLQPEDIATYYCLQYDNRRTFGGGTKVEIKR
On to B15, for which the binding entry in test [2], in test [3], in test [4] and in test [5] was “binds” throughout.

B16: H211-G1d/LB-k (antibody, human IgG1, kappa, V domains shown)
VH: QDQLVQSGAEVKKPGASVKVSCKASGFNIKDTYIQWVRQAPGQGLEWMGRIDPLRRQTKYHEKFEGRVTITADTSTNTAYMELSSLRSEDTAVYYCVRSGREFDFWGQGTLVTVSS
VL: DIQMTQSPSSLSASVGDRVTITCKASQDIHKYIAWYQQKPGQAPRLLIQYTSTLQPGVPSRFSGSGSGTDYTFTISSLQPEDIATYYCLQYDNLRTFGGGTKVEIKR
Regarding B16, the binding result in test [2], in test [3], in test [4] and in test [5] was “binds” throughout.

B17: H205-G1d/LB-k (antibody, human IgG1, kappa, V domains shown)
VH: QDQLVQSGAEVKKPGASVKVSCKASGFNIKDTYIQWVRQAPGQGLEWMGRIDPLRRQTKYREKFEGRVTITADTSTNTAYMELSSLRSEDTAVYYCVRSGREFDYWGQGTLVTVSS
VL: DIQMTQSPSSLSASVGDRVTITCKASQDIHKYIAWYQQKPGQAPRLLIQYTSTLQPGVPSRFSGSGSGTDYTFTISSLQPEDIATYYCLQYDNLRTFGGGTKVEIKR
As for B17, the binding entry in test [2], in test [3], in test [4] and in test [5] was “binds” in each case.

Values taken from patent US20150110793A1.
